The record followed here is paper PMC8604404, “Kinesin-binding protein remodels the kinesin motor to prevent microtubule binding” (Science Advances, 2021).

The chains behind the UniProt entries cited, without tags or fusion partners. Where a name states a change or a piece, a line headed by the entry shows the natural chain unless it says otherwise.
UniProt Q96EK5: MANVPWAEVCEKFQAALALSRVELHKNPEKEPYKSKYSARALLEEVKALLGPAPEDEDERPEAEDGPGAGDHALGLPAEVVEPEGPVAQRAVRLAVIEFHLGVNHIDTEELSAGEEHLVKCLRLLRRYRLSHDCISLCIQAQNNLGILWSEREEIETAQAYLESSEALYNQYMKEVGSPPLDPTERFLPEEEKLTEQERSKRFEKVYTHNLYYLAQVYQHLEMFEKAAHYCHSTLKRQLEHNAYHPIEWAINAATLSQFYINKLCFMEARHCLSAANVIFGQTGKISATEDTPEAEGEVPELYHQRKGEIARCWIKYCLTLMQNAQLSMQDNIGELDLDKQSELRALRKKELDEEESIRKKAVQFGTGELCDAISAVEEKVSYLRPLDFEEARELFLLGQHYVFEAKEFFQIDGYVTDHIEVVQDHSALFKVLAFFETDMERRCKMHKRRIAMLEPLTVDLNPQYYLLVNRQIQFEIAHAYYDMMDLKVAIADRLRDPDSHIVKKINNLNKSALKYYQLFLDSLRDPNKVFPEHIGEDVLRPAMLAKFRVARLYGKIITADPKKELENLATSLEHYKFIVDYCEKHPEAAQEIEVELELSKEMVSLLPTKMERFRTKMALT

The target of this experiment is T1, His6-KIF15-N375 (KIF15 motor domain, amino acids 1 to 375) (human) (UniProt Q9NS87).
T1 sequence: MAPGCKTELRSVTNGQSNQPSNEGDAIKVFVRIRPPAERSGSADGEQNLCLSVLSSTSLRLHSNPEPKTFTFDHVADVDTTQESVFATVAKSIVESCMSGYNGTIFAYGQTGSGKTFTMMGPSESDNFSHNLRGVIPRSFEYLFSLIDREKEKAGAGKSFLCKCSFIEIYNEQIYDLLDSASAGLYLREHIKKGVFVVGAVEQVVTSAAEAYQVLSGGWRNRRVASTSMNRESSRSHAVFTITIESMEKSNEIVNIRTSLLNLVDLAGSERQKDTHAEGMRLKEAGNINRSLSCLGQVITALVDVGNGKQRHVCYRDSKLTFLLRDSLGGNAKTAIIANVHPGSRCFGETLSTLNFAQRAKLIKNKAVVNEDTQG
The experiment is described as follows: pull-down; His6-kinesin motor domain immobilised on Ni-NTA agarose, 20 ug KIFBP protein or GST in 200 ul, 10 mM Hepes pH 7.4, 50 mM KCl, 10 mM imidazole, 30 min at 4°C; Coomassie gel, ratio of KIFBP to kinesin in the pellet; both purified.

These are yes or no findings as the source states them, for the method shown. A result given as binding can be weak or reduced; the word gives no strength. Where a sequence is shown, tags or fusion partners need not be part of it.

For “KIFBP-HP9b^m (helix pair 9b mutant of KIFBP) (from UniProt Q96EK5)”, the binding result was “binds”.
